Laboratory results reported in paper PMC7819943, “Rice protein-binding microarrays: a tool to detect cis-acting elements near promoter regions in rice”.
The other results are listed elsewhere or left out.

Target: T1, OsSMF1 (Oryza sativa, UniProt Q6ZLB0 1-436)
T1 sequence: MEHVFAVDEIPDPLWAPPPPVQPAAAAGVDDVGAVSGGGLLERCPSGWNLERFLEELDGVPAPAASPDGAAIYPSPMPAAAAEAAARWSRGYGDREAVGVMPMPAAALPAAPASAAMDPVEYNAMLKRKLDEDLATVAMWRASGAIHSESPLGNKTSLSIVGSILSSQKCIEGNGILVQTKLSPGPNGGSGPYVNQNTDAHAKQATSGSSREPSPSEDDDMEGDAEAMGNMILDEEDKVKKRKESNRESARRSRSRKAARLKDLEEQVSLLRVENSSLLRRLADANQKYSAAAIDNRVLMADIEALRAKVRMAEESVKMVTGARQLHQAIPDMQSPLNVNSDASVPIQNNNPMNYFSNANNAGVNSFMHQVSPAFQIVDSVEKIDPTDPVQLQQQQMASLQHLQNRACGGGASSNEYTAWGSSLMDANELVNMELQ
Assay: protein-binding microarray (RPBM); PBS, 2% BSA, 51.3 ng/ul salmon testes DNA, 50 uM zinc acetate, 200 nM TF, 25 C, 1 h; high values mean tight binding
Settings: protein: recombinant; tags: N-terminal polyhistidine and DsRed monomer fusion (pET32a); chain copies: 2; label: CyDye5-dUTP incorporated in the synthesized complementary strand; 3' TTTTT single-stranded linker to array surface; dsDNA, one strand shown
Outline: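 Transcription factors were each fused at the N-terminus to a polyhistidine tag plus DsRed and expressed in E. coli BL21-CodonPlus before Ni–NTA purification. Binding to a double-stranded custom Agilent array was carried out with 200 nM protein at 25 °C for 1 h in PBS, 2% BSA, salmon testes DNA and 50 µM zinc acetate. The binding signal is per-feature fluorescence intensity, in arbitrary units, on an Axon 4000B scanner.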

| Sequence | binding signal |
| --- | --- |
| GCCTCTCCTTGCTTGCGTGCTCACTGTCGCTGACTGCTCTCGGAGTCACCTAGTGCAG | 4650 fluorescence intensity (a.u.) |
| CCAGTTTACGATTCTGACAGGCCCTTCCGTTTTGGGCACTCGGAGTCACCTAGTGCAG | 3450 fluorescence intensity (a.u.) |
| GCTTCTGTACATCTGCAACCTGTGAGTACAATACAAGTGACGGAGTCACCTAGTGCAG | 30300 fluorescence intensity (a.u.) |
| CACCCGTGTTGTGGCACCAATAATGTTGGGCTTCTCTCCCCGGAGTCACCTAGTGCAG | 3620 fluorescence intensity (a.u.) |
| CGGTTGAGGGATGTGGCACAAACTCAATTTGTATAGTTAACGGAGTCACCTAGTGCAG | 3160 fluorescence intensity (a.u.) |
| TTATTACTCCTTGTCACAGTTTATAGGGTGTTCTTTTACACGGAGTCACCTAGTGCAG | 3590 fluorescence intensity (a.u.) |
| CAATCTTGATTGTTGGGCAGTTGGGCTTAGTTGATGTATGCGGAGTCACCTAGTGCAG | 3470 fluorescence intensity (a.u.) |
| CCTCGTCCGCCTTGGTCTTCTTCCAGCCGAGGAGCAACCGCGGAGTCACCTAGTGCAG | 48200 fluorescence intensity (a.u.) |
| AGCTACATACGTACCTACGTTACGTTAATTTCTTGCTTGCCGGAGTCACCTAGTGCAG | 3440 fluorescence intensity (a.u.) |
| GCAATCTCATGATTCATGCAGCTTTGTAGCAATGTGTGCTCGGAGTCACCTAGTGCAG | 3140 fluorescence intensity (a.u.) |
| TCTCCTCTCCTCCAGCGAAGGACGGCGACGAACTCGACGACGGAGTCACCTAGTGCAG | 14500 fluorescence intensity (a.u.) |
| CTTTGTTTGCGCTGGTAGCCGCCGCCGTGACATGCGCTCACGGAGTCACCTAGTGCAG | 37300 fluorescence intensity (a.u.) |
| CTGATGACTGTCTTGTCATCATTTGATTATTTCCTAAGCCCGGAGTCACCTAGTGCAG | 6290 fluorescence intensity (a.u.) |
| TCGACTATGCCACGTCAGCGATTCGGTACAGTACTACAGTCGGAGTCACCTAGTGCAG | 25600 fluorescence intensity (a.u.) |
| GCCACTTTGGAGACTTTTATGCCCAAAATGTCCGTGTAGCCGGAGTCACCTAGTGCAG | 7000 fluorescence intensity (a.u.) |
| GTTATATACGGATTAGCTGTATTCATCGGATTACCTGTTGCGGAGTCACCTAGTGCAG | 3550 fluorescence intensity (a.u.) |
| ACTCAACAAGTCAACACGATCAAACTCCCACATCAGCAGACGGAGTCACCTAGTGCAG | 7320 fluorescence intensity (a.u.) |
| GAAAATAAGGGAGTTTTCTGCAAAATTTGATGAATGGAAGCGGAGTCACCTAGTGCAG | 3230 fluorescence intensity (a.u.) |
| AGTCGCACGCCAAGTGTTTGTTGTTTTGCCAAGCAAGATGCGGAGTCACCTAGTGCAG | 3520 fluorescence intensity (a.u.) |
| AATTAGCATACTATAACACCAATAAACACATTATGACACCCGGAGTCACCTAGTGCAG | 4380 fluorescence intensity (a.u.) |
| TAAGGTCCATGAACTTGTTTAAGTGAATCATTGCGGTCCACGGAGTCACCTAGTGCAG | 3490 fluorescence intensity (a.u.) |
| GGAGCCCATAAGCGAAATGTGTGTGCTGTACTGCTGTTCCCGGAGTCACCTAGTGCAG | 3950 fluorescence intensity (a.u.) |
| ATATGCAAAATTCGCATGCCCGCTCATCGGCCTTTGTCACCGGAGTCACCTAGTGCAG | 3820 fluorescence intensity (a.u.) |
| TATACTCCATCTGTTAATATATGGTCTCATCTATCATACACGGAGTCACCTAGTGCAG | 30200 fluorescence intensity (a.u.) |
| TGTAAAATATTTGGTATTAGAGTTCATGTGACAATTGTATCGGAGTCACCTAGTGCAG | 3280 fluorescence intensity (a.u.) |
| ACGTATTATCGAATTTTACGTATTCCTTCATGGAATACGTCGGAGTCACCTAGTGCAG | 3180 fluorescence intensity (a.u.) |
| CGTCCTACTCTCATTGTAGATGAGGTGTCTCAGTTAAACCCGGAGTCACCTAGTGCAG | 4080 fluorescence intensity (a.u.) |

Reprinted at random: 2 entries already listed.

| Sequence | binding signal |
| --- | --- |
| GGAGCCCATAAGCGAAATGTGTGTGCTGTACTGCTGTTCCCGGAGTCACCTAGTGCAG | 3950 fluorescence intensity (a.u.) |
| TGTAAAATATTTGGTATTAGAGTTCATGTGACAATTGTATCGGAGTCACCTAGTGCAG | 3280 fluorescence intensity (a.u.) |

Another view of some results above:
CGGTTGAGGGATGTGGCACAAACTCAATTTGTATAGTTAACGGAGTCACCTAGTGCAG
  binding signal: 3160 fluorescence intensity (a.u.)
TTATTACTCCTTGTCACAGTTTATAGGGTGTTCTTTTACACGGAGTCACCTAGTGCAG
  binding signal: 3590 fluorescence intensity (a.u.)

(list continues)

| Sequence | binding signal |
| --- | --- |
| TTATCAAAGTAGAAGCAATTAAGCATTGTTTCATCGTCGTCGGAGTCACCTAGTGCAG | 10800 fluorescence intensity (a.u.) |
| CTGAATGAGTCACTTAAACAAGATGGTGGACCTAAATGTGCGGAGTCACCTAGTGCAG | 4440 fluorescence intensity (a.u.) |
| TGTGTGTGTACACGTATTTATATCCCGTGTGATCGAACAACGGAGTCACCTAGTGCAG | 5770 fluorescence intensity (a.u.) |
| CACGCGCGCACTCGTCTCGCCGCGTCCACACCCATCGGCTCGGAGTCACCTAGTGCAG | 3150 fluorescence intensity (a.u.) |
| TTCATCCTTCGTTACTGACACGTGGCCTAGTTTTGCAAGACGGAGTCACCTAGTGCAG | 9300 fluorescence intensity (a.u.) |
| AAAACTAAAGAAGACGACGACACGCAAGCGAAAATTGCCCCGGAGTCACCTAGTGCAG | 10600 fluorescence intensity (a.u.) |
| CTCGCTCGATCGTTCGCCGCATCAGCCAGTCTCAGTCCGCCGGAGTCACCTAGTGCAG | 3860 fluorescence intensity (a.u.) |
| CGCTCTCGCAGCCCCTCTCCACGTCGTCCACCACGCGCTCCGGAGTCACCTAGTGCAG | 5580 fluorescence intensity (a.u.) |
| TCTGCCTTTTGCTATGACAGCATTGTGTGGACTATAGCATCGGAGTCACCTAGTGCAG | 3540 fluorescence intensity (a.u.) |
| GTTCTTATCCTCCTCTGCCAGCAGTGACTCACCTCGCCACCGGAGTCACCTAGTGCAG | 12500 fluorescence intensity (a.u.) |
| CTGCTAAGTAGGTCCATGACGCAAGATCTGCTCCGGGTGACGGAGTCACCTAGTGCAG | 3780 fluorescence intensity (a.u.) |
| GCAACAAAGCGCATGTCATCATCTAGTGAATTAGCTAATGCGGAGTCACCTAGTGCAG | 4040 fluorescence intensity (a.u.) |
| TCAGTACCTCATCACTGATTTGATGCTATGCTGCCCAGTGCGGAGTCACCTAGTGCAG | 33100 fluorescence intensity (a.u.) |
| ACCAATGCAATTTCATATCAAACAGTCACGGATGGGCTTTCGGAGTCACCTAGTGCAG | 3190 fluorescence intensity (a.u.) |
| AGTAGTTTAAAATACATGTTAAACGGAAATCGAGGTAAAACGGAGTCACCTAGTGCAG | 33700 fluorescence intensity (a.u.) |
| TCCTCCAATCGGAGAGGTGTGCTCGCGTGTTTGGTTTGACCGGAGTCACCTAGTGCAG | 3940 fluorescence intensity (a.u.) |
| CTCGCTCCCTTCCTCGCCGTCATCAGCCGCGGCTGCCGCCCGGAGTCACCTAGTGCAG | 3850 fluorescence intensity (a.u.) |
| CACTTGGATTAATGCGAAAATCCACGTGGAATACAACTCACGGAGTCACCTAGTGCAG | 6730 fluorescence intensity (a.u.) |
| GTGGGTGATCAACATGTCACAGAATATACGAGCCGGTATGCGGAGTCACCTAGTGCAG | 9030 fluorescence intensity (a.u.) |
| CTTATATCCGTGTGCATGGGCCATAACTTTACTCAGTTTACGGAGTCACCTAGTGCAG | 4040 fluorescence intensity (a.u.) |
| GAAGGCTAAAACAACTTGGGTAGACCTGCTGGGCTGCCACCGGAGTCACCTAGTGCAG | 36400 fluorescence intensity (a.u.) |
| CCCGAGAGTCACGTGACACCTCACCCTTCCATTAGAAAAGCGGAGTCACCTAGTGCAG | 3260 fluorescence intensity (a.u.) |
| AGCCTTGTCATGTAAACCTATCCTTTTGAGACACGTGCGTCGGAGTCACCTAGTGCAG | 5780 fluorescence intensity (a.u.) |
| CGCCTTCAATGCATCATCTTCGCCTCTCGACTCAATCTGCCGGAGTCACCTAGTGCAG | 3480 fluorescence intensity (a.u.) |
| CAAATTCGCGATTCTCTCATCTAATCCTCCTCCTCCTCCCCGGAGTCACCTAGTGCAG | 4480 fluorescence intensity (a.u.) |
| CACCCCTAGACACCTGTAGCTGCTAGCTCACATCATTTTGCGGAGTCACCTAGTGCAG | 4890 fluorescence intensity (a.u.) |
| ACCCATTCACCAATGATTGGATCACTCAAAGCCAAAGACCCGGAGTCACCTAGTGCAG | 27900 fluorescence intensity (a.u.) |
